From the supplement of paper PMC10849652
Some of the results follow.

The chains behind the UniProt entries cited, without tags or fusion partners. Where a name states a change or a piece, a line headed by the entry shows the natural chain unless it says otherwise.
UniProt Q9Y5S1: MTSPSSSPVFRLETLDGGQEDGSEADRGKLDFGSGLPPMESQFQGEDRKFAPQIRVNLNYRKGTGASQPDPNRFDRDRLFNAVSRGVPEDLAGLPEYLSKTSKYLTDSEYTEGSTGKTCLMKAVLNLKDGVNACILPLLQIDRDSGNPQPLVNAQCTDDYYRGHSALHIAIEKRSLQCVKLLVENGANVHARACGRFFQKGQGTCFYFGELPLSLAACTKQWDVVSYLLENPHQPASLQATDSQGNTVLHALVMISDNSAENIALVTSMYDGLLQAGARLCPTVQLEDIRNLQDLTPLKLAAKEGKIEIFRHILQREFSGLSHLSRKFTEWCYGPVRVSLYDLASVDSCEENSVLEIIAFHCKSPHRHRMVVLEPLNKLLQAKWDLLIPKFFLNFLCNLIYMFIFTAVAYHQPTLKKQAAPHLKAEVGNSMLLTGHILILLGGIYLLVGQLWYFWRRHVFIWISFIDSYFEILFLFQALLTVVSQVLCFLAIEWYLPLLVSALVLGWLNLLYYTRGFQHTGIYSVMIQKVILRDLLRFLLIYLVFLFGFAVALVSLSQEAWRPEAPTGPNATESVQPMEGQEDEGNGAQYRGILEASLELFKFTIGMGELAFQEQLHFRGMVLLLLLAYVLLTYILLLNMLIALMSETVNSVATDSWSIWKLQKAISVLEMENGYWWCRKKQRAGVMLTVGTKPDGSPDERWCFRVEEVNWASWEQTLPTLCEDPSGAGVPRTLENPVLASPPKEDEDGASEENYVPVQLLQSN
UniProt Q5JU69: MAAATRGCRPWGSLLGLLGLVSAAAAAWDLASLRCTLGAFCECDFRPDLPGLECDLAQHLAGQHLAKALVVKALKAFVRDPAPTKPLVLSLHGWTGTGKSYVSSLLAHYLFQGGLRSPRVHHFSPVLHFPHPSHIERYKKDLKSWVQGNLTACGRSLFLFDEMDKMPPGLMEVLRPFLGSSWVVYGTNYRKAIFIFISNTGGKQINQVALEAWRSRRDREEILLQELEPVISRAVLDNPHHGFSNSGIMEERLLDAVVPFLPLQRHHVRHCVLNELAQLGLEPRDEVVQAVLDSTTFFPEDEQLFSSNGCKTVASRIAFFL
UniProt Q15650: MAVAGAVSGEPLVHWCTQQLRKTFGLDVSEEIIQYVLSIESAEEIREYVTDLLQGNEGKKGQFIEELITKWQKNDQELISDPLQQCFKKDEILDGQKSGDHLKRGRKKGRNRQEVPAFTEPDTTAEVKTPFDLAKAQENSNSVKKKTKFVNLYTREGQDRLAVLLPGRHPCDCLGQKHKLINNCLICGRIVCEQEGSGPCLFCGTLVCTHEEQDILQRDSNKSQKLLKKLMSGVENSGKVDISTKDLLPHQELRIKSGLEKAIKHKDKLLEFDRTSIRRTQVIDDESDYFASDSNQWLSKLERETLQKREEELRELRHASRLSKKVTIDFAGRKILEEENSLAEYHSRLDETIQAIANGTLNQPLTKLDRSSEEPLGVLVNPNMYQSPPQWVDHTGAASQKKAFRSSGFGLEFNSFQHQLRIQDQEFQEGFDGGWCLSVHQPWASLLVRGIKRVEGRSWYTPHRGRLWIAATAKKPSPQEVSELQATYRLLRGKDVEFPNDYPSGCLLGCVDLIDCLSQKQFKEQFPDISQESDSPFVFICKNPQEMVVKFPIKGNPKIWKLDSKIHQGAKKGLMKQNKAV
UniProt Q5JTV8: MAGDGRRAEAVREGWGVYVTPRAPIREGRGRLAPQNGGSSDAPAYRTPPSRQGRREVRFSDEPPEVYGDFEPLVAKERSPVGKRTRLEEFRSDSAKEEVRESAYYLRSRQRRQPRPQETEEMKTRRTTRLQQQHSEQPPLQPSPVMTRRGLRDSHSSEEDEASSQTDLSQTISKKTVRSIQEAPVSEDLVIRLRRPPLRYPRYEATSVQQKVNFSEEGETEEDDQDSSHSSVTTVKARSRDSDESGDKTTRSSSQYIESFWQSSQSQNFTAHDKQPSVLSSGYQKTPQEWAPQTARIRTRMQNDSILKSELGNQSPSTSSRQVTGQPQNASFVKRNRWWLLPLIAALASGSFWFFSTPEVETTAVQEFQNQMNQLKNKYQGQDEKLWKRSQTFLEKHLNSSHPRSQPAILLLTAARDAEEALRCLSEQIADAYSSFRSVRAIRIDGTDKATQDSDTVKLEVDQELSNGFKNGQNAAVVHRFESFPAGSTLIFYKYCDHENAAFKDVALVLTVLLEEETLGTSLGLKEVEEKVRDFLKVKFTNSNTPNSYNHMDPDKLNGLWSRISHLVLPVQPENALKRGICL
UniProt O14656: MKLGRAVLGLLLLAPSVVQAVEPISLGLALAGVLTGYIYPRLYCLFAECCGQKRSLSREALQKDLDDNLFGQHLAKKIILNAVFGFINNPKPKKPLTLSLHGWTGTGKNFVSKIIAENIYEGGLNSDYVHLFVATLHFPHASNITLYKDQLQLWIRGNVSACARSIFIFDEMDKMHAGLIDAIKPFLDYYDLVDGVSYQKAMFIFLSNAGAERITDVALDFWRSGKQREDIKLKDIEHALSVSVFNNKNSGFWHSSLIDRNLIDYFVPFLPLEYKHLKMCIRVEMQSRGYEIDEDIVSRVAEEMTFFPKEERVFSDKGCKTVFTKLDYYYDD
UniProt P60174, whole entry, looked up: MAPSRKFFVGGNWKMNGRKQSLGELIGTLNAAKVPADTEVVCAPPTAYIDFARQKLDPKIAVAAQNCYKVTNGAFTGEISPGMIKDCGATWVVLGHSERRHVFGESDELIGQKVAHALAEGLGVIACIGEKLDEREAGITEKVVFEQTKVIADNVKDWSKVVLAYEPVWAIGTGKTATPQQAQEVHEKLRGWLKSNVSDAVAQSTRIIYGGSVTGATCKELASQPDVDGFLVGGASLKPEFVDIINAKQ
UniProt Q9BQ61: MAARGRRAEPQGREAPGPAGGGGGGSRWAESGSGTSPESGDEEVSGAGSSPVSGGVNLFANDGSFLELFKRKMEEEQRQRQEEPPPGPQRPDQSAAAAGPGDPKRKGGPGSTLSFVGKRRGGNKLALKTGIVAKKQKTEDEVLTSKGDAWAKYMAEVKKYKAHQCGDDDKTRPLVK
UniProt Q02880: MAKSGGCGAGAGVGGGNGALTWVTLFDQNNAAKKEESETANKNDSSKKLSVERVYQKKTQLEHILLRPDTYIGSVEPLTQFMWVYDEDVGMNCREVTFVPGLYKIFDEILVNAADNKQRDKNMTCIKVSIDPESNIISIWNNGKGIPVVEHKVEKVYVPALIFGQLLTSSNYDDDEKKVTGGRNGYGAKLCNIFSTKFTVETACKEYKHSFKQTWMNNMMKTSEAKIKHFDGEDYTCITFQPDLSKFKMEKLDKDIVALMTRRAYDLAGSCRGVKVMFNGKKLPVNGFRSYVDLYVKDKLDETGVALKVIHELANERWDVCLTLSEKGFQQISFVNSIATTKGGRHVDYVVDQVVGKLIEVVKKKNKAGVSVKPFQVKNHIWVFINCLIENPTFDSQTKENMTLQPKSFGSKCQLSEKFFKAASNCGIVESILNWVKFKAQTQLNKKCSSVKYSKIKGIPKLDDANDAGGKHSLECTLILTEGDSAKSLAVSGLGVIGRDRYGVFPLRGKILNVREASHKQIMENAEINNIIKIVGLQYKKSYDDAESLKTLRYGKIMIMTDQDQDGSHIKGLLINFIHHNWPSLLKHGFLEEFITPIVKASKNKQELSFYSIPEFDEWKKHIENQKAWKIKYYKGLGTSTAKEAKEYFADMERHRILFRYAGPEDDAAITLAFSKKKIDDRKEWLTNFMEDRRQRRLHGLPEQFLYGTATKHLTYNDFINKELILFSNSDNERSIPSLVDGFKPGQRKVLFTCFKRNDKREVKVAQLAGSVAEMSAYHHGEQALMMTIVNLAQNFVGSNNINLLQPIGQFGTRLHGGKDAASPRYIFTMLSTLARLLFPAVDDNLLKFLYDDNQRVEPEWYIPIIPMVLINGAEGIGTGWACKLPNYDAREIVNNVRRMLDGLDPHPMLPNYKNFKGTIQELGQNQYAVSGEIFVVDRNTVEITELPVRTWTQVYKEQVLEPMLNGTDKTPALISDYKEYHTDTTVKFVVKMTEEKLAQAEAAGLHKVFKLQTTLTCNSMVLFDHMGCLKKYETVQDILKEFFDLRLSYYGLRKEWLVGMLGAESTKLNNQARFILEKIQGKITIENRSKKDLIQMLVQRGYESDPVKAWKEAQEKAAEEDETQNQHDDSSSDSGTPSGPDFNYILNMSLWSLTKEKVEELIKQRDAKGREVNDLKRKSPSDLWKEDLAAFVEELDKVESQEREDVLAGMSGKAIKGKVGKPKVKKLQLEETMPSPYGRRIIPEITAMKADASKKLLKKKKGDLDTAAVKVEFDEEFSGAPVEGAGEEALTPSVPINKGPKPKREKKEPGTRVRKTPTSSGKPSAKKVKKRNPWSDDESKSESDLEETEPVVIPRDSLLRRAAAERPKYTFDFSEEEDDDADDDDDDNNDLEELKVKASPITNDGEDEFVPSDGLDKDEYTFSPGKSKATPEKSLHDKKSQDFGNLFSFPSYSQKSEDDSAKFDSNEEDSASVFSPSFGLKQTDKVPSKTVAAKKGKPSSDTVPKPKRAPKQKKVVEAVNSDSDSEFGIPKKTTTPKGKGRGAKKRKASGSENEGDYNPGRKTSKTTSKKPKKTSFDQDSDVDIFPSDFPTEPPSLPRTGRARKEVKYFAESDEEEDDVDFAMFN
UniProt Q8IUR0, whole entry, looked up: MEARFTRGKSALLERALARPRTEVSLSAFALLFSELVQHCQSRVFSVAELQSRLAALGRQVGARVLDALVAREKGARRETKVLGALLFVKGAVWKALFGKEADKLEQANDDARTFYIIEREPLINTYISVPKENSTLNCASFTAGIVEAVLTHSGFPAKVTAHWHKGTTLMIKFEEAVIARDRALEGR
UniProt Q9NUP7: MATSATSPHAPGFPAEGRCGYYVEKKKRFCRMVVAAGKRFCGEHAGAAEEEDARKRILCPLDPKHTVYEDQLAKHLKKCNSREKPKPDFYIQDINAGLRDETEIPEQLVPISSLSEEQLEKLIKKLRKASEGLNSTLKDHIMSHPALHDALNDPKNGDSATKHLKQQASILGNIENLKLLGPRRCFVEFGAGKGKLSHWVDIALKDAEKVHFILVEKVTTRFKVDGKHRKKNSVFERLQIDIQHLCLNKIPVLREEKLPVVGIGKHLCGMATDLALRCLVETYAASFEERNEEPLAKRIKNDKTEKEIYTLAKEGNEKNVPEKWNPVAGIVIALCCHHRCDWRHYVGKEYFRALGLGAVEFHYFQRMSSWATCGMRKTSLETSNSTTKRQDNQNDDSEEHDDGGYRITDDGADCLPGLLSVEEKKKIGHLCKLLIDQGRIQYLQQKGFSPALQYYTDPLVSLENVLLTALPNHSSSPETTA
UniProt P20333, whole entry, looked up: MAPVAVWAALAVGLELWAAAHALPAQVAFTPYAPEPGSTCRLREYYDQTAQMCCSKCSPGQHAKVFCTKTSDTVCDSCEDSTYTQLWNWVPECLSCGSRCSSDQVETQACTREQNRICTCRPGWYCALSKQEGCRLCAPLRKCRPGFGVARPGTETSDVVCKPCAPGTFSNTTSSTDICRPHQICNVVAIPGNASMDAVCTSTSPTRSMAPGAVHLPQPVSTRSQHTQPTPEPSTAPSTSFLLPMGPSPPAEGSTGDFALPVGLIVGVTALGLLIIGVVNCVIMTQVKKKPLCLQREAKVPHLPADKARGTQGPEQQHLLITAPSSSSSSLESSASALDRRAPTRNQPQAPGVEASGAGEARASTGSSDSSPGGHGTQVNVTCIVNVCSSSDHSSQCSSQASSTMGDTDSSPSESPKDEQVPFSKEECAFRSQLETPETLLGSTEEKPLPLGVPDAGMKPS
UniProt Q9Y3Q8: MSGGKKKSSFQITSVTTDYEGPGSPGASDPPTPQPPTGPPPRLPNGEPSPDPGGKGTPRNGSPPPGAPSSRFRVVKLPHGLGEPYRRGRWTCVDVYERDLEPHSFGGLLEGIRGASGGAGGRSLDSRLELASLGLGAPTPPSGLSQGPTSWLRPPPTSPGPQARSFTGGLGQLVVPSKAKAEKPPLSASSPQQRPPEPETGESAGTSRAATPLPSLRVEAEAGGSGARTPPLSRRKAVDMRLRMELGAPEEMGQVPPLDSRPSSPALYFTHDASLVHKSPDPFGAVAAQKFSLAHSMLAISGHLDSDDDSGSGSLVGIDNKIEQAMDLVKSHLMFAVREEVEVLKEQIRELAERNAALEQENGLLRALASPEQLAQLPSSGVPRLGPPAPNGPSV
UniProt Q9NS69: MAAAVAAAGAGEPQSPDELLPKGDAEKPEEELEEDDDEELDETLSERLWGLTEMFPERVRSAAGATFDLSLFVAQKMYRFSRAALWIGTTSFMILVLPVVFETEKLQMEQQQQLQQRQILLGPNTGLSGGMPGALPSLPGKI
UniProt P06753, whole entry, looked up: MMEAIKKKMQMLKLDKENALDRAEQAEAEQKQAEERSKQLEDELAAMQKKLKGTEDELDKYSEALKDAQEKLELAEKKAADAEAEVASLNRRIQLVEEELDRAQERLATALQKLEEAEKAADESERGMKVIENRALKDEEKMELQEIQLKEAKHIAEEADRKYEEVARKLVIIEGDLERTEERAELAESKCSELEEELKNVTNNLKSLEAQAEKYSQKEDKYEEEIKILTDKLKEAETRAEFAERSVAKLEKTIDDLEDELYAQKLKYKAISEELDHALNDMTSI

Compound: CC(=O)c1cnc2ccc(-c3cc(Cl)c(O)c(Cl)c3)nc2c1N[C@H]1CC[C@H](CN(C)C)CC1
Experiment: log2 fold change, soluble protein after heating vs DMSO (PISA); higher = thermal stabilisation; K562 cells, 10 uM, 30 min; active = over 0.2 and 3.5 SD of the protein, either way, in both replicates (recomputed)
In short: (§1)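 Thermal stability values are relative to control samples and come from duplicates. They are expressed as log2 fold changes. For measurement, K562 cells (2×10^6 cells/mL) received 10 μM compound for 30 min, and aliquots were heated for 3 min over 48°C-58°C, pooled, and extracted at 4°C in PBS with 0.5% NP-40. Soluble protein, the supernatant after 21,000xg for 90 min, was quantified by TMTpro 16plex LC-MS/MS with equalised channel sums.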

Target | log2 fold change
TRPV2 (UniProt Q9Y5S1) | inactive: 0
TPM1 (UniProt H7BYY1) | inactive: 0.012
TPCN1 isoform 3 (UniProt Q9ULQ1) | inactive: -0.083
TOR2A (UniProt Q5JU69) | inactive: 0.089
TRIP4 (UniProt Q15650) | inactive: 0
TOR1AIP1 isoform 3 (UniProt Q5JTV8) | inactive: 0.003
TOR1A (UniProt O14656) | inactive: -0.02
TPI1 (UniProt P60174) | inactive: 0.005
TRIR (UniProt Q9BQ61) | inactive: 0.021
TOP2B (UniProt Q02880) | inactive: 0.218

Compound: CC(C)(C)Cn1c(N)nc2ccc(-c3[nH]c(C(C)(C)C)nc3-c3ccc(F)cc3)nc21 [ralimetinib]
Experiment: as above
In short: as §1

Target | log2 fold change
TP53RK (UniProt Q96S44) | inactive: -0.053
TOR4A (UniProt Q9NXH8) | inactive: 0.176
TRIM56 (UniProt Q9BRZ2) | inactive: 0.096
TRAPPC5 (UniProt Q8IUR0) | inactive: 0.101
TPST2 (UniProt O60704) | inactive: 0.013
TRMT13 (UniProt Q9NUP7) | inactive: -0.043
TPP2 (UniProt P29144) | inactive: 0.163
TNFRSF1B (UniProt P20333) | inactive: -0.028
TSC22D4 (UniProt Q9Y3Q8) | inactive: -0.024
TSC22D2 (UniProt O75157) | inactive: -0.051
TSEN15 (UniProt Q8WW01) | inactive: -0.101
TRMT6 (UniProt Q9UJA5) | inactive: 0.023
TOMM22 (UniProt Q9NS69) | inactive: -0.097
TRAPPC10 (UniProt P48553) | inactive: 0.053
TRIM25 (UniProt Q14258) | inactive: 0.196
TPM3 isoform 2 (UniProt P06753) | inactive: 0.068

Target | log2 fold change
TRAPPC12 (UniProt Q8WVT3) | inactive: 0.019
TRMU (UniProt O75648) | inactive: -0.061
TP53BP2 isoform 3 (UniProt Q13625) | inactive: 0.157
TRMT11 (UniProt Q7Z4G4) | inactive: -0.032
TOR1AIP2 (UniProt Q8NFQ8) | inactive: -0.017
TPM3 isoform 4 (UniProt P06753) | inactive: -0.096
TRPV2 (UniProt Q9Y5S1) | inactive: -0.02
TPM1 (UniProt H7BYY1) | inactive: -0.043
TPCN1 isoform 3 (UniProt Q9ULQ1) | inactive: -0.022
TOR2A (UniProt Q5JU69) | inactive: -0.006
TRIP4 (UniProt Q15650) | inactive: 0.076
TOR1AIP1 isoform 3 (UniProt Q5JTV8) | inactive: 0.005
TOR1A (UniProt O14656) | inactive: -0.005
TPI1 (UniProt P60174) | inactive: -0.068
TRIR (UniProt Q9BQ61) | inactive: -0.039
TOP2B (UniProt Q02880) | inactive: 0.274

Compound: CC(C)(O)CC(=O)NCCn1ccc2ncnc(Nc3ccc(Oc4cccc(C(F)(F)F)c4)c(Cl)c3)c21
Experiment: as above
In short: as §1

Target | log2 fold change
TP53RK (UniProt Q96S44) | inactive: 0.002
TOR4A (UniProt Q9NXH8) | inactive: 0.018
TRIM56 (UniProt Q9BRZ2) | inactive: 0.079
TRAPPC5 (UniProt Q8IUR0) | inactive: -0.119
TPST2 (UniProt O60704) | inactive: -0.065
TRMT13 (UniProt Q9NUP7) | inactive: 0.007
TPP2 (UniProt P29144) | inactive: 0.026
TNFRSF1B (UniProt P20333) | inactive: -0.029
TSC22D4 (UniProt Q9Y3Q8) | inactive: 0.003
TSC22D2 (UniProt O75157) | inactive: 0.007
TSEN15 (UniProt Q8WW01) | inactive: -0.068
TRMT6 (UniProt Q9UJA5) | inactive: 0.022
TOMM22 (UniProt Q9NS69) | inactive: -0.058
TRAPPC10 (UniProt P48553) | inactive: 0.044
TRIM25 (UniProt Q14258) | inactive: 0.027
TPM3 isoform 2 (UniProt P06753) | inactive: 0.179

Target | log2 fold change
TRAPPC12 (UniProt Q8WVT3) | inactive: -0.146
TRMU (UniProt O75648) | inactive: -0.037
TP53BP2 isoform 3 (UniProt Q13625) | inactive: -0.021
TRMT11 (UniProt Q7Z4G4) | inactive: -0.042
TOR1AIP2 (UniProt Q8NFQ8) | inactive: 0.01
TPM3 isoform 4 (UniProt P06753) | inactive: 0.048
TRPV2 (UniProt Q9Y5S1) | inactive: -0.032
TPM1 (UniProt H7BYY1) | inactive: -0.004
TPCN1 isoform 3 (UniProt Q9ULQ1) | inactive: 0.061
TOR2A (UniProt Q5JU69) | inactive: 0.047
TRIP4 (UniProt Q15650) | inactive: 0.004
TOR1AIP1 isoform 3 (UniProt Q5JTV8) | inactive: 0.015
TOR1A (UniProt O14656) | inactive: -0.019
TPI1 (UniProt P60174) | inactive: 0.033
TRIR (UniProt Q9BQ61) | inactive: 0.041
TOP2B (UniProt Q02880) | inactive: -0.001
